Measured values published in patent publication US4180501 (dated 1979).

Experiment: Boc solid-phase peptide synthesis; Benzhydrylamine resin
Settings: whole synthesis, scale 1.0 mmole

| Substance | isolated mass |
| --- | --- |
| N^α,N^ε -bis(L-tyrosyl-D-alanyl-glycyl-L-phenylalanyl)-L-lysine amide | 440 mg |
| N^α,N^ε -bis(L-tyrosyl-D-alanyl-glycyl-L-phenylalanyl-L-methionyl)-L-lysine amide | 290 mg |
